Results published in the supplement of paper PMC7661543.
Differences between knockout arms are mostly noise.

Tested on: SKBR3
Experiment: relative cell number vs DMSO control (72 h) (% of DMSO); higher = less growth inhibition (more cells)
Procedure: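 QMAP-Seq: a pool of 5 breast cancer cell lines (ZR-75-1, SKBR3, HCC-38, MDA-MB-231, BT-20), each carrying 12 doxycycline-inducible Cas9 sgRNA perturbations (11 knockouts plus non-targeting sgNT), was treated with compounds for 72 h at four 10-fold doses (10 nM-10 uM or 1 nM-1 uM range). Barcodes were amplified and sequenced, and cell number was interpolated from 293T spike-in standard curves. The result is expressed as % of the median of DMSO wells. Two biological replicates.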

COc1cc(C(=O)N2CCC(N3CCN(C)CC3)CC2)ccc1Nc1ncc2c(n1)N(C)c1ccccc1C(=O)N2C [LRRK2IN1]
Settings	relative cell number
sgRNA knockout: sgATF3, 10 nM	125
sgRNA knockout: sgATF3, 100 nM	109
sgRNA knockout: sgATF3, 1000 nM	80.9
sgRNA knockout: sgATF3, 10000 nM	41.8
sgRNA knockout: sgATF4, 10 nM	109
sgRNA knockout: sgATF4, 100 nM	85.5
sgRNA knockout: sgATF4, 1000 nM	67.1
sgRNA knockout: sgATF4, 10000 nM	37.1
sgRNA knockout: sgATF6, 10 nM	96.9
sgRNA knockout: sgATF6, 100 nM	77.9
sgRNA knockout: sgATF6, 1000 nM	61.5
sgRNA knockout: sgATF6, 10000 nM	37.1
sgRNA knockout: sgATG7, 10 nM	142
sgRNA knockout: sgATG7, 100 nM	101
sgRNA knockout: sgATG7, 1000 nM	78.8
sgRNA knockout: sgATG7, 10000 nM	26.1
sgRNA knockout: sgERN1, 10 nM	118
sgRNA knockout: sgERN1, 100 nM	89.7
sgRNA knockout: sgERN1, 1000 nM	66.9
sgRNA knockout: sgERN1, 10000 nM	43.4
sgRNA knockout: sgHSF1, 10 nM	123
sgRNA knockout: sgHSF1, 100 nM	85.55
sgRNA knockout: sgHSF1, 1000 nM	75.8
sgRNA knockout: sgHSF1, 10000 nM	32.1
sgRNA knockout: sgHSF2, 10 nM	117
sgRNA knockout: sgHSF2, 100 nM	89.1
sgRNA knockout: sgHSF2, 1000 nM	67.8
sgRNA knockout: sgHSF2, 10000 nM	34.5
sgRNA knockout: sgKEAP1, 10 nM	112
sgRNA knockout: sgKEAP1, 100 nM	82.9
sgRNA knockout: sgKEAP1, 1000 nM	66.5
sgRNA knockout: sgKEAP1, 10000 nM	37
sgRNA knockout: sgNFE2L2, 10 nM	99.3
sgRNA knockout: sgNFE2L2, 100 nM	91
sgRNA knockout: sgNFE2L2, 1000 nM	57.5
sgRNA knockout: sgNFE2L2, 10000 nM	40.9
sgRNA knockout: sgSLC35F2, 10 nM	84.6
sgRNA knockout: sgSLC35F2, 100 nM	110
sgRNA knockout: sgSLC35F2, 1000 nM	67.4
sgRNA knockout: sgSLC35F2, 10000 nM	30.1
sgRNA knockout: sgXBP1, 10 nM	111
sgRNA knockout: sgXBP1, 100 nM	113
sgRNA knockout: sgXBP1, 1000 nM	57.4
sgRNA knockout: sgXBP1, 10000 nM	32.7

C=CCc1cccc(/C=N/NC(=O)CN2CCN(Cc3ccccc3)CC2)c1O [PAC1]
Settings	relative cell number
sgRNA knockout: sgATF3, 10 nM	115
sgRNA knockout: sgATF3, 100 nM	63.5
sgRNA knockout: sgATF3, 1000 nM	88.2
sgRNA knockout: sgATF3, 10000 nM	44.5
sgRNA knockout: sgATF4, 10 nM	105
sgRNA knockout: sgATF4, 100 nM	78.4
sgRNA knockout: sgATF4, 1000 nM	71.8
sgRNA knockout: sgATF4, 10000 nM	32.7
sgRNA knockout: sgATF6, 10 nM	91
sgRNA knockout: sgATF6, 100 nM	84.4
sgRNA knockout: sgATF6, 1000 nM	96.7
sgRNA knockout: sgATF6, 10000 nM	44.1
sgRNA knockout: sgATG7, 10 nM	70.9
sgRNA knockout: sgATG7, 100 nM	84.2
sgRNA knockout: sgATG7, 1000 nM	89.7
sgRNA knockout: sgATG7, 10000 nM	49.1
sgRNA knockout: sgERN1, 10 nM	127
sgRNA knockout: sgERN1, 100 nM	91.4
sgRNA knockout: sgERN1, 1000 nM	91.1
sgRNA knockout: sgERN1, 10000 nM	42.2
sgRNA knockout: sgHSF1, 10 nM	85.4
sgRNA knockout: sgHSF1, 100 nM	76
sgRNA knockout: sgHSF1, 1000 nM	81.3
sgRNA knockout: sgHSF1, 10000 nM	34.52
sgRNA knockout: sgHSF2, 10 nM	107
sgRNA knockout: sgHSF2, 100 nM	71.9
sgRNA knockout: sgHSF2, 1000 nM	82.9
sgRNA knockout: sgHSF2, 10000 nM	41.6
sgRNA knockout: sgKEAP1, 10 nM	96
sgRNA knockout: sgKEAP1, 100 nM	69.9
sgRNA knockout: sgKEAP1, 1000 nM	71.4
sgRNA knockout: sgKEAP1, 10000 nM	39.6
sgRNA knockout: sgNFE2L2, 10 nM	95.5
sgRNA knockout: sgNFE2L2, 100 nM	82.7
sgRNA knockout: sgNFE2L2, 1000 nM	83.1
sgRNA knockout: sgNFE2L2, 10000 nM	37.8
sgRNA knockout: sgSLC35F2, 10 nM	98.8
sgRNA knockout: sgSLC35F2, 100 nM	67.4
sgRNA knockout: sgSLC35F2, 1000 nM	101
sgRNA knockout: sgSLC35F2, 10000 nM	38.7
sgRNA knockout: sgXBP1, 10 nM	115
sgRNA knockout: sgXBP1, 100 nM	82.9
sgRNA knockout: sgXBP1, 1000 nM	73.5
sgRNA knockout: sgXBP1, 10000 nM	34.1

COC(=O)Nc1nc2cc(C(=O)c3ccccc3)ccc2[nH]1 [Mebendazole]
Settings	relative cell number
sgRNA knockout: sgATF3, 10 nM	91.8
sgRNA knockout: sgATF3, 100 nM	57.1
sgRNA knockout: sgATF3, 1000 nM	12.7
sgRNA knockout: sgATF3, 10000 nM	6.57
sgRNA knockout: sgATF4, 10 nM	99.7
sgRNA knockout: sgATF4, 100 nM	74.4
sgRNA knockout: sgATF4, 1000 nM	8.73
sgRNA knockout: sgATF4, 10000 nM	7.01
sgRNA knockout: sgATF6, 10 nM	80.6
sgRNA knockout: sgATF6, 100 nM	59.6
sgRNA knockout: sgATF6, 1000 nM	7.27
sgRNA knockout: sgATF6, 10000 nM	11.8
sgRNA knockout: sgATG7, 10 nM	114
sgRNA knockout: sgATG7, 100 nM	77.69
sgRNA knockout: sgATG7, 1000 nM	9.895
sgRNA knockout: sgATG7, 10000 nM	5.12
sgRNA knockout: sgERN1, 10 nM	92.3
sgRNA knockout: sgERN1, 100 nM	72.7
sgRNA knockout: sgERN1, 1000 nM	9.09
sgRNA knockout: sgERN1, 10000 nM	5.83
sgRNA knockout: sgHSF1, 10 nM	97.8
sgRNA knockout: sgHSF1, 100 nM	76.7
sgRNA knockout: sgHSF1, 1000 nM	10.7
sgRNA knockout: sgHSF1, 10000 nM	4.99
sgRNA knockout: sgHSF2, 10 nM	103
sgRNA knockout: sgHSF2, 100 nM	68.1
sgRNA knockout: sgHSF2, 1000 nM	12.2
sgRNA knockout: sgHSF2, 10000 nM	9.45
sgRNA knockout: sgKEAP1, 10 nM	86.16
sgRNA knockout: sgKEAP1, 100 nM	62.8
sgRNA knockout: sgKEAP1, 1000 nM	7.66
sgRNA knockout: sgKEAP1, 10000 nM	7.23
sgRNA knockout: sgNFE2L2, 10 nM	108
sgRNA knockout: sgNFE2L2, 100 nM	65.6
sgRNA knockout: sgNFE2L2, 1000 nM	6.81
sgRNA knockout: sgNFE2L2, 10000 nM	7.32
sgRNA knockout: sgSLC35F2, 10 nM	83.8
sgRNA knockout: sgSLC35F2, 100 nM	75.9
sgRNA knockout: sgSLC35F2, 1000 nM	10.1
sgRNA knockout: sgSLC35F2, 10000 nM	8.13
sgRNA knockout: sgXBP1, 10 nM	114
sgRNA knockout: sgXBP1, 100 nM	71.8
sgRNA knockout: sgXBP1, 1000 nM	7.98
sgRNA knockout: sgXBP1, 10000 nM	5.17
